Test results reported in publication PMC9700792.
Construct, isoform or probe ends are uncertain for at least one entry. At least one result comes from cells or an extract, where the contact may be indirect.

Test system: PPARγ + RXRα
Experiment: EMSA
Details: unlabeled self-competitor 0.05-5 uM also tested (outcome only in gel), LightShift chemiluminescent kit, 20 min incubation with nuclear extract, pH and temperature not given, protein in a lysate after overexpression, label: biotin 3' end

Row | Sequence | binding result
1 | CCATCCGTGTGACCTTTGGCCCCAGTGGGA (double strand) [Kbtbd11 PPRE1] | binds
2 | CTGAGTGGTAGGGTAAAGTTCAGCATGGGC (double strand) [Kbtbd11 PPRE2] | binds
